Experimental data taken from PubChem BioAssay AID2685 (National Center for Advancing Translational Sciences (NCATS), 2010).
This is one part of the list. These are further read-outs of the screen, such as a control signal, another cell line or another target. No call is given for them. Most of these compounds were active or inconclusive in the main read-out, so they are no random draw. Words in brackets tell the shape of the fitted curve; partial curves, single points and poor fits give uncertain potencies.

Experiment: qHTS Assay for Lipid Storage Modulators in Drosophila S3 Cells;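 on cell number change: cells counted by Cell Tracker Red CMTPX staining in the red channel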
Settings: BODIPY lipid droplet fluorescence, 18-24 h; for cell number change: measured here: cell count max response, cells fed with added oleic acid
Summary of the method: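 Laser-scanning cytometry quantifies lipid droplet accumulation (500–530 nm total intensity; droplet/cell object ratio) in oleic acid-fed (400 uM added) Drosophila S3 cells treated with a concentration series. 20 uM Triacsin C defined 100% inhibition.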

[1] = measured here: cell number channel AC50, cells fed with added oleic acid
[2] = measured here: lipid fluorescence (Fed channel) AC50, cells fed with added oleic acid

Compound	cell number change [%]	AC50 [1]	AC50 [2]
Clc1ccccc1OCc1nnc(-c2ccccc2Br)o1	0.271		
Cc1ccc(C(c2nnnn2C2CCCCC2)N(C)C2CCCCC2)cc1 (stereo not given)	-24.5	0.00411 µM [falling, full curve, poor fit]	0.259 µM [falling, partial curve, poor fit]
COc1ccc(NC(=O)CSc2nnc(-c3cccs3)n2N)c(OC)c1	22		8.2 µM [rising, partial curve]
Cc1cccc(N2CCN(C(=O)c3cc(=O)[nH]c4ccccc34)CC2)c1C		0.326 µM [rising, partial curve, poor fit]	
Cc1ccc(-c2cc(-c3ccccc3Cl)c(C#N)c(N)n2)o1	-0.337		11.6 µM [rising, partial curve]
CNC(=O)CC1C(=O)N(c2ccc(F)cc2)C(=S)N1NC(=O)c1ccc(Br)cc1 (stereo not given)	-22.2	4.11 µM [rising, partial curve, poor fit]	
COc1ccc(-c2cc(C(F)(F)F)c(C#N)c(=O)[nH]2)cc1	14.6		0.116 µM [falling, full curve, poor fit]
COc1cccc(CNC(=O)CNC(=S)N(Cc2ccccc2)Cc2ccccc2F)c1	-30.8	0.164 µM [falling, full curve, poor fit]	0.0058 µM [falling, full curve, poor fit]
O=C(CNC(=O)c1ccc(N2C(=O)c3ccccc3C2=O)cc1)OCC(=O)c1cccc2ccccc12	-23.8		10.3 µM [rising, partial curve]
COc1ccc(/C=C2\Oc3cc(OCC(=O)N4CCC[C@H]4C(=O)O)ccc3C2=O)cc1OC	12.6		0.103 µM [rising, full curve, poor fit]
O=C(Nc1cc(F)ccc1F)c1cccc(-n2cnnn2)c1	53.8	20.6 µM [rising, single point]	
COc1ccccc1CN(C)C(=O)COC(=O)c1cc(C)oc1C	3.2	0.0411 µM [falling, full curve]	
CCCCC(=O)Nc1ccc(Br)cc1C(=O)O	8.85		32.6 µM [falling, partial curve]
CSCCC(NC(=O)c1ccccc1Br)C(=O)N1CCN(C(C)=O)CC1 (stereo not given)	-5.08	2.91 µM [falling, single point]	0.82 µM [rising, full curve]
O=C1CC(Sc2ncccn2)C(=O)N1c1ccccc1C(F)(F)F (stereo not given)	-87.1	23.1 µM [falling, single point]	29.1 µM [falling, single point]
Cc1cc(C)c(S(C)(=O)=O)c(S(=O)c2ccc(Cl)cc2)n1 (stereo not given)	28.6		29.1 µM [rising, single point]
O=C(Nc1ccc(F)cc1)C1CCCN(C2=NS(=O)(=O)c3ccccc32)C1 (stereo not given)	22.3	6.51 µM [falling, single point]	6.51 µM [falling, single point]
Cc1ccc(-n2ncc3c2CC(C)(C)CC3NC(=O)c2cc[n+]([O-])cc2)cc1 (stereo not given)	40.1	0.517 µM [rising, full curve]	
CCOc1ccc(Nc2nc(-c3cccnc3)cs2)cc1	11.9		29.1 µM [rising, partial curve]
CC(Oc1ccccc1)C(=O)OCC(=O)NC(=O)NC1CCCCC1 (stereo not given)	-17.4		
O=S1(=O)N=C2CCCN2C(c2ccc(F)cc2)N1 (stereo not given)	-15.4	0.58 µM [rising, partial curve, poor fit]	0.0731 µM [falling, full curve]
COc1ccc(CCNC(=O)CCN2C(=O)[C@@H]3Cc4ccccc4CN3C2=O)cc1	30.7	29.1 µM [rising, single point]	29.1 µM [rising, single point]
CCOC(=O)Oc1ccc2c(=O)c(Oc3cc(C)cc(C)c3)coc2c1	3.68		0.411 µM [rising, full curve, poor fit]
C/C(=N\NC(=O)c1ccc(N2CCCC2=O)cc1)c1ccncc1	22.5		9.2 µM [rising, partial curve]
c1ccn2cc(C34CC5CC(CC(C5)C3)C4)nc2c1	27.8		29.1 µM [rising, single point]
COc1ccc(C(c2oc(CO)cc(=O)c2O)c2oc(CO)cc(=O)c2O)cc1	-19.2	1.46 µM [rising, partial curve]	1.46 µM [rising, partial curve]
Oc1ccccc1-c1cc(-c2ccccc2Cl)[nH]n1	-74.2	29.1 µM [falling, single point]	29.1 µM [falling, single point]

A draw from above in order of SMILES length, descending:
Compound	cell number change [%]	AC50 [1]	AC50 [2]
Cc1ccc(-n2ncc3c2CC(C)(C)CC3NC(=O)c2cc[n+]([O-])cc2)cc1 (stereo not given)	40.1	0.517 µM [rising, full curve]	
Cc1ccc(C(c2nnnn2C2CCCCC2)N(C)C2CCCCC2)cc1 (stereo not given)	-24.5	0.00411 µM [falling, full curve, poor fit]	0.259 µM [falling, partial curve, poor fit]
CCCCC(=O)Nc1ccc(Br)cc1C(=O)O	8.85		32.6 µM [falling, partial curve]
